The supplement of paper PMC3334620
The full ranking holds about 33,000 sequences; the median of “E-score (-0.5 to 0.5)” is about -8e-05, and the highest 2% start at about 0.23. The list shows a part of the results.

What follows are sequences tested against T1, Nrg2 (UniProt P38082) (assay: PBM E-score (8-mer binding enrichment) (E-score (-0.5 to 0.5)); higher = stronger / more preferred TF binding). Conditions: protein concentration: 100 nM; construct: GST-full length.
T1 sequence: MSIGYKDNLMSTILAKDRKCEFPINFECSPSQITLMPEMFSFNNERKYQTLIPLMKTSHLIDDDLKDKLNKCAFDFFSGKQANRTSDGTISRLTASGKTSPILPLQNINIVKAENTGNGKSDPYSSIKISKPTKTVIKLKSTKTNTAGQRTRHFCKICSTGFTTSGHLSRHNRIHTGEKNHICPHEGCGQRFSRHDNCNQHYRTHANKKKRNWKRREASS
How it was run: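 Bound GST-tagged yeast transcription factors, applied at about 100-200 nM to double-stranded universal all-10-mer Agilent arrays, were detected with fluorescent anti-GST. Scans were normalised with masliner. A modified Wilcoxon-Mann-Whitney statistic, the E-score, was assigned to each ungapped eight-base word pooled with its reverse complement by the Universal PBM Analysis Suite.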

| Sequence | PBM E-score |
| --- | --- |
| GTTGGACA | -0.114 |
| ATAGAAAG | 0.0273 |
| ATTTATTG | 0.0706 |
| ATACCGCG | 0.128 |
| GAGCGCTC | 0.193 |
| TACTATGA | 0.185 |
| AGTCGGAC | -0.0923 |
| ATACCAAA | 0.049 |
| AACTTCTC | -0.0214 |
| CCGATTTC | -0.187 |
| CCCCGCCC | 0.118 |
| ACAGATAG | -0.131 |
| ATGCACTC | -0.0395 |
| GCTGGGTA | 0.0249 |
| CCATTGAG | -9e-05 |
| ACTTATGG | -0.0643 |
| AACAGTAT | -0.00385 |
| AACGTTCC | -0.0118 |
| GGAGTTTA | -0.12 |
| CTTGAGAA | -0.0483 |
| ATTTCGTA | 0.0258 |
| AGTTCCTC | -0.0445 |
| CCAACCGG | -0.00871 |
| ATAGACAC | -0.0891 |
| TGGACCAA | -0.0309 |

| Sequence | PBM E-score |
| --- | --- |
| ACTAATTA | 0.226 |
| GCCGATCA | 0.0742 |
| GATTCGAA | 0.256 |
| ACCGGGCT | -0.246 |
| AGATACAC | 0.244 |
| CATCACAC | 0.148 |
| AGATTGCT | -0.0335 |
| CACCATCC | -0.259 |
| GAACAATC | 0.0696 |
| AAATCAGC | 0.203 |
| GTTGAATA | 0.156 |
| AGTGATGC | -0.0346 |
| CTTCGCCC | -0.129 |
| CATGCAGG | 0.0522 |
| ATATCCAC | 0.0955 |
| AAATGAGC | -0.0221 |
| AGGCGTAT | 0.0997 |
| ATTCGGCG | 0.0312 |
| CGTACCTC | -0.172 |
| GGCGAACA | -0.00418 |
| CAACGCAA | -0.0742 |
| GCTAACAC | 0.0266 |
| CGTCGTCC | -0.0222 |
| CCCGGCGG | -0.136 |
| ACATGGGG | 0.0436 |

| Sequence | PBM E-score |
| --- | --- |
| CCCATAAG | -0.0141 |
| AATGGCTA | 0.181 |
| AGCCTCCT | -0.238 |
| ACCCTAGG | 0.0795 |
| CCAAAAGA | 0.014 |
| GGGTATGA | 0.0534 |
| GTTAGCAA | -0.00913 |
| CACCGACG | -0.141 |
| AGGCGAGC | -0.0996 |
| TCGTGAGA | -0.0385 |
| AACCAGGC | 0.00628 |
| CTCGCACC | -0.0477 |
| AAAGGCGC | 0.0165 |
| TCAAGTCA | -0.00884 |
| GTCCGGCA | -0.0633 |
| AAGGCGAA | -0.0762 |
| ACGTTTTC | 0.139 |
| GTCTGAAC | -0.0177 |
| AAGAATTC | -0.0595 |
| AGGCAACC | -0.0327 |
| ATTAAAAA | 0.246 |
| ACCGGCAT | -0.0358 |
| CCAGTGAC | -0.141 |
| ATATGAAC | 0.116 |
| GTCACGGA | -0.00114 |

| Sequence | PBM E-score |
| --- | --- |
| CAGATTGG | -0.0418 |
| ATATGGGG | 0.173 |
| AAGAAGTA | 0.0804 |
| AAGATACA | 0.171 |
| GGTCTGTA | 0.0254 |
| CAGTCCCC | -0.125 |
| ATGGGGGC | -0.289 |
| CACCAAGC | -0.13 |
| AGAGAGCG | -0.0462 |
| ACTAGACG | 0.026 |
| CACAAATG | -0.0239 |
| CAACGGAA | 0.121 |
| GTACGGCA | -0.0489 |
| GCGGACCC | 0.158 |
| AAAGACTT | -0.251 |
| ACTGAGCT | -0.0539 |
| CTGAGATA | -0.0803 |
| GTCAATGA | 0.0266 |
| AAAATGCG | 0.0104 |
| CAAGGCGC | 0.047 |
| GGGAAAGA | -0.173 |
| TAAAGATA | 0.0462 |
| GGGTGCAA | 0.197 |
| CTTCACTA | 0.0734 |
| TAGTGCCA | -0.0871 |

| Sequence | PBM E-score |
| --- | --- |
| ACCGAGGA | -0.178 |
| ACGCTAGA | -0.16 |
| AGTATGTA | -0.0131 |
| CCATACGA | -0.0461 |
| ACAATCTG | 0.0567 |
| TAGTAAAA | 0.108 |
| ATCAAGTA | 0.0508 |
| AAGCAGTC | -0.135 |
| TATCCTAA | 0.0329 |
| CGACTGTA | -0.312 |
| ACACCGGC | -0.0672 |
| GAATTGCA | 0.105 |
| CCAGCTCC | -0.189 |
| ATACCTAC | 0.035 |
| GATGACCC | 0.118 |
| ACTCGAAC | 0.0772 |
| AGACTGCG | -0.192 |
| CTATGGAG | -0.253 |
| TATTCTGA | 0.018 |
| AAGTTTAC | 0.0165 |
| CTAGACGA | -0.226 |
| ATAGTTTA | -0.114 |
| AGTACGGC | -0.00767 |
| GCTTGAGA | -0.0677 |
| AGACTGGG | -0.0672 |

| Sequence | PBM E-score |
| --- | --- |
| ACACCGGG | -0.175 |
| ATAAAGCA | 0.0557 |
| ATATCAAG | 0.285 |
| CCCCTGAG | 0.176 |
| AGATGTAA | 0.134 |
| CATACAGG | -0.0183 |
| ACTGAGGG | -0.265 |
| CTATCATC | -0.151 |
| CGGTCCAA | -0.224 |
| ATGCCAGG | 0.0222 |
| ATAGGAAG | -0.127 |
| AGGAACTA | 0.105 |
| CGTGATCA | 0.0201 |
| AATCGTTA | -0.104 |
| ATATGCCC | -0.0229 |
| TCCACGGA | 0.107 |
| GGCGCTGA | -0.04 |
| ATCATGGC | 0.137 |
| ACATGTCG | -0.0034 |
| GGAGCATA | 0.0218 |
| GTTTTCAA | 0.152 |
| ACTATGGG | -0.0318 |
| ACTTGGTC | 0.179 |
| CACCGTTC | -0.0167 |
| CCGCCACG | -0.104 |

As entered above:
Value of GTTGAATA under PBM E-score: 0.156
Value of ACTAATTA under PBM E-score: 0.226
Value of AGACTGGG under PBM E-score: -0.0672
Value of CGTCGTCC under PBM E-score: -0.0222
Value of CGACTGTA under PBM E-score: -0.312
Value of CCCCGCCC under PBM E-score: 0.118

Following part:

| Sequence | PBM E-score |
| --- | --- |
| AGTCGTCC | -0.152 |
| AAGCATAC | -0.0237 |
| ACTGCCAC | -0.0513 |
| CAGGCTGC | -0.116 |
| GTATTAAA | 0.196 |
| CATCGCTC | -0.0896 |
| CCTAACAA | 0.0801 |
| TACTTTGA | 0.0852 |
| TAACGGTA | -0.0223 |
| GGGTCCGA | 0.153 |
| CCCCTAAA | -0.0979 |
| CCTGATAA | 0.0785 |
| CATGGAGA | -0.019 |
| CCAGGAGA | 0.0741 |
| GGATCGCA | 0.128 |
| ATGGAAGC | -0.0711 |
| CAGACATC | 0.0838 |
| AATGCGGG | 0.181 |
| CCGATAAC | -0.0105 |
| ACAGTGAT | 0.169 |
| ATTAGGAG | 0.0389 |
| GGCGGTAA | 0.0411 |
